Experimental data reported in the supplement of paper PMC8166895.
Structures can show the parent of a compound that is named as a salt. This is one part of the list. Most entries show no effect beyond the scatter of the controls.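 Differential scanning fluorimetry gave melting temperatures in a one-replicate pilot screen of a library of approved drugs plus clinical or known-target compounds. Hits increasing melting point at least 2 °C were the strongest stabilizers, while negative shifts signify destabilization.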

tested on: SARS-CoV-2 main protease (Mpro, nsp5); test: thermal shift ΔTm of Mpro relative to plate average Tm; higher = stronger thermal stabilization of Mpro (binding); settings: 10 µM; protein concentration 1 µM

SMILES | thermal shift ΔTm of Mpro
Nc1ncnc2c1c(-c1cnc3[nH]ccc3c1)nn2C1CCCC1 | -0.0425 °C
CO[C@H]1[C@H](OC)[C@H]2O[C@H]3[C@@H](OC)[C@H](OC)[C@@H](O[C@H]4[C@@H](OC)[C@H](OC)[C@@H](O[C@H]5[C@@H](OC)[C@H](OC)[C@@H](O[C@H]6[C@@H](OC)[C@H](OC)[C@@H](O[C@H]7[C@@H](O)[C@H](OC)[C@@H](O[C@H]8[C@@H](O)[C@H](OC)[C@@H](O[C@@H]1[C@@H](CO)O2)O[C@@H]8CO)O[C@@H]7CO)O[C@@H]6CO)O[C@@H]5CO)O[C@@H]4CO)O[C@@H]3CO [Methyl-β-cyclodextrin] | 0.363 °C
Cc1cc(C(O)=C2C(=O)C(=O)N(CCCN3CCOCC3)C2c2ccncc2)ccc1OCc1ccccc1 (configuration not stated) | 0.0141 °C
COc1cc(OC)cc(-c2cc3cnc(N)nc3nc2NC(=O)NC(C)(C)C)c1 | -0.106 °C
COc1cc(C(=O)NC2CCCNC2)cc(OC)c1OC (configuration not stated) [Troxipide] | -0.0601 °C
C[C@]12CC[C@@H]3c4ccc(O)cc4CC[C@H]3[C@@H]1CCC2=O [Estrone] | 0.0151 °C
Cc1cc(-n2cccc2)c(S(C)(=O)=O)cc1C(=O)N=C(N)N [Eniporide] | 0.352 °C
Nc1ncnc2c1c(-c1cccc(OCc3ccccc3)c1)cn2C1CC(CN2CCC2)C1 (configuration not stated) | -0.183 °C
CCCCCCCCc1ccc(CCC(N)(CO)CO)cc1 [Fingolimod (FTY720) HCl] | -0.229 °C
CC(C)(O)c1cn(-c2ccc(-c3cccc(S(C)(=O)=O)c3)cc2)c(C(C)(C)c2ccccc2Cl)n1 | -0.0917 °C
CCN(CC)CCOc1ccc(Nc2nc(-c3ccccc3NC(=O)CCN3CCN(C)CC3)nc3ccccc23)cc1 | -0.207 °C
Cc1ccc(NC(=O)Nc2nnc(Sc3ncnc4cc(OCCCN5CCOCC5)ccc34)s2)cc1 | 0.267 °C
COc1cnc(NS(=O)(=O)c2ccc(N)cc2)nc1 [Sulfameter] | 0.0346 °C
O=C(O)CCn1c2c(c3ccccc31)C[C@H](NS(=O)(=O)c1ccc(F)cc1)CC2 [Ramatroban] | 0.0185 °C
Cc1c[nH]c2nc(Nc3ccc(N4CCN(C)CC4)c(F)c3)nc(-c3cccc(CC#N)c3)c12 | 0.266 °C
CS(=O)(=O)Nc1ccc(C(=O)NCc2ccc(Cl)cc2Cl)cc1 | -0.131 °C
O=C(O)CCC(=O)Nc1ccc(S(=O)(=O)Nc2nccs2)cc1 [Succinylsulfathiazole] | 0.169 °C
O=S(=O)(Nc1ccccc1)c1ccc(NC(=S)Nc2ccccc2)cc1 | 0.183 °C
O=C(O)c1cc([O-])c([O-])c(O)c1.[Bi+3].[OH-] | 0.305 °C
CCOC(OCC)P(=O)(O)CCCNCc1ccc(Cl)c(Cl)c1 | -0.0567 °C
Cc1cccc(CN2CCN(C(c3ccccc3)c3ccc(Cl)cc3)CC2)c1 (configuration not stated) [Meclizine dihydrochloride] | 0.276 °C
OC1CCC(Oc2cccc3cnc(Nc4ccc5nc[nH]c5c4)nc23)CC1 (configuration not stated) | -0.0175 °C
COc1cc(CCC(C)=O)ccc1O [Vanillylacetone] | -0.0558 °C
O=NN(CCCl)C(=O)NC1CCCCC1 [Lomustine] | 0.217 °C
CC1CN(S(=O)(=O)c2cccc3cnccc23)CCN1 (configuration not stated) [Iso-H7 dihydrochloride] | -0.043 °C
CC(C)c1cc(C(=O)N2Cc3ccc(CN4CCN(C)CC4)cc3C2)c(O)cc1O | -0.117 °C

SMILES | thermal shift ΔTm of Mpro
COc1cc(Nc2ncc(F)c(Nc3ccc4c(n3)N(COP(=O)(O)O)C(=O)C(C)(C)O4)n2)cc(OC)c1OC [R788 Disodium] | -0.0133 °C
COc1cc(Nc2ncc(F)c(Nc3ccc4c(n3)N(COP(=O)(O)O)C(=O)C(C)(C)O4)n2)cc(OC)c1OC [Fostamatinib (R788)] | 0.04 °C
CCOc1ccc(-c2nc(-c3cccc4c3CCC4NCCO)no2)cc1OCC (configuration not stated) | 0.0161 °C
CC1(C)S[C@@H]2[C@H](NC(=O)[C@H](NC(=O)N3CCN(S(C)(=O)=O)C3=O)c3ccccc3)C(=O)N2[C@H]1C(=O)O [Mezlocillin Sodium] | -0.0386 °C
Cn1c(=O)cc(N2CCC[C@@H](N)C2)n(Cc2ccccc2C#N)c1=O [Alogliptin] | -0.107 °C
Cn1c(=O)cc(N2CCC[C@@H](N)C2)n(Cc2ccccc2C#N)c1=O [Alogliptin Benzoate] | 0.169 °C
CCCCCCCN(CC)CCCC(O)c1ccc(NS(C)(=O)=O)cc1 (configuration not stated) [Ibutilide Fumarate] | 0.175 °C
Cc1nnc(C(C)C)n1C1C[C@H]2CC[C@@H](C1)N2CC[C@H](NC(=O)C1CCC(F)(F)CC1)c1ccccc1 (stereo in doubt) [Maraviroc] | 0.155 °C
c1ccc2[nH]c(-c3cscn3)nc2c1 [Thiabendazole] | -0.103 °C
Cn1cc(-c2ccc3nnc(C(F)(F)c4ccc5ncccc5c4)n3n2)cn1 | -0.15 °C
OC[C@@H](O)[C@@H](O[C@@H]1O[C@H](CO)[C@H](O)[C@H](O)[C@H]1O)[C@H](O)[C@@H](O)CO [Lactitol monohydrate] | 0.163 °C
CCC(CC)CC1(C(=O)Nc2ccccc2SC(=O)C(C)C)CCCCC1 | -0.102 °C
CN1[C@@H](CC(=O)c2ccccc2)CCC[C@H]1C[C@H](O)c1ccccc1 [Lobeline hydrochloride] | 0.343 °C
COc1ccc(CNC(=O)c2cc(-c3cncc(C)c3)ncc2-c2nccs2)nc1OC | -0.0298 °C
COC(=O)c1cc(OC)c2c(c1-c1c(CO)cc(OC)c3c1OCO3)OCO2 [Bicyclol] | 0.0041 °C
CNC(=O)Nc1ccc(-c2nc(N3CC4CCC(C3)O4)c3cnn(C4CCC5(CC4)OCCO5)c3n2)cc1 | -0.00586 °C
COC1=C2C[C@@H](C)C[C@H](OC)[C@H](O)[C@@H](C)/C=C(\C)[C@H](OC(N)=O)[C@@H](OC)/C=C\C=C(/C)C(=O)NC(=CC1=O)C2=O [Geldanamycin] | -0.209 °C
CCCCNc1ncc2c(-c3ccc(CN4CCN(C)CC4)cc3)cn([C@H]3CC[C@H](O)CC3)c2n1 | 0.0312 °C
CN1CC2c3ccccc3Oc3ccc(Cl)cc3C2C1 (configuration not stated) [Asenapine Maleate] | -0.0393 °C
CN1CC2c3ccccc3Oc3ccc(Cl)cc3C2C1 (configuration not stated) [Asenapine] | 0.138 °C
Oc1cc(CN2CCOCC2)c(O)cc1CN1CCOCC1 | -0.0562 °C
CCOC(=O)[C@H](CCc1ccccc1)N[C@@H](C)C(=O)N1CCC[C@H]1C(=O)O [Enalapril Maleate] | 0.0813 °C
CNC(=O)Oc1ccccc1OC(C)C [Propoxur] | -0.0409 °C
CNC(=O)[C@H](Cc1ccccc1)NC(=O)[C@H](CC(C)C)[C@H](CSc1cccs1)C(=O)NO [Batimastat (BB-94)] | 0.0709 °C
COc1cc2ncnc(Nc3ccc(O)cc3)c2cc1OC | 0.0906 °C
O=C(O)c1cn(C2CC2)c2cc(Cl)c(F)cc2c1=O [Ciprofloxacin EP IMpurity A] | 0.0953 °C

SMILES | thermal shift ΔTm of Mpro
O=C(O)c1ccccc1C(=O)Nc1ccc(-c2ccccc2)cc1 [Kartogenin] | -0.211 °C
O=C(NC(O)C(Cl)(Cl)Cl)NC(O)C(Cl)(Cl)Cl (configuration not stated) | 0.241 °C
C=CC(=O)N1CCC[C@@H](n2nc(-c3ccc(Oc4ccccc4)cc3)c3c(N)ncnc32)C1 | -0.29 °C
CC(=O)N1CCN(CCOc2ccc(C3CCN(C4=Nn5c(nnc5C(F)(F)F)CC4)CC3)cc2)CC1 | 0.0991 °C
O=C1N=C(N2CCOCC2)CN1c1ccc(Cl)cc1 | 0.192 °C
C=CC(=O)Nc1ccc2ncnc(Nc3ccc(OCc4cccc(F)c4)c(Cl)c3)c2c1 | 0.455 °C
CC(=O)NC1CCSC1=O (configuration not stated) [Citiolone] | 0.129 °C
CC1=C(CC(=O)O)c2cc(F)ccc2/C1=C\c1ccc([S+](C)[O-])cc1 (configuration not stated) [Sulindac] | 0.0185 °C
C[C@]12CC[C@@H]3c4ccc(O)cc4CC[C@H]3[C@@H]1C[C@@H](O)[C@@H]2O [Estriol] | -0.00864 °C
Cc1nc(N)sc1-c1ccnc(Nc2ccc(N3CCOCC3)cc2)n1 | 0.0788 °C
CCCCC(=O)O[C@]1(C(=O)CO)CC[C@H]2[C@@H]3CCC4=CC(=O)CC[C@]4(C)[C@H]3[C@@H](O)C[C@@]21C [Hydrocortisone Valerate] | -0.232 °C
Cc1noc(NS(=O)(=O)c2ccc(N)cc2)c1C [Sulfisoxazole] | 0.0557 °C
CCc1cccc2c3c([nH]c12)C(CC)(CC(=O)O)OCC3 (configuration not stated) [Etodolac] | 0.345 °C
CCC[C@H](NC(=O)[C@@H]1[C@H]2CCC[C@H]2CN1C(=O)[C@@H](NC(=O)[C@@H](NC(=O)c1cnccn1)C1CCCCC1)C(C)(C)C)C(=O)C(=O)NC1CC1 [Telaprevir (VX-950)] | 0.257 °C
C[C@@H]1CN(CC(=O)Nc2ccc3c(c2)Cc2cccc(-c4cc(=O)cc(N5CCOCC5)o4)c2S3)C[C@H](C)O1 | -0.25 °C
CSc1ccc(C(=O)/C=C/c2cc(C)c(OC(C)(C)C(=O)O)c(C)c2)cc1 [Elafibranor] | -0.133 °C
O=C1CC(c2c[nH]c3ccc(F)cc23)C(=O)N1 (configuration not stated) | 0.0304 °C
C/C(=N\NC(=O)c1cccc(S(=O)(=O)N2CCOCC2)c1)c1cc(Cl)ccc1O | 0.039 °C
O=C(NS(=O)(=O)c1ccc(Br)s1)c1ccc(Cl)cc1Cl [Tasisulam] | 0.138 °C
OCCOCCN1CCN(C(c2ccccc2)c2ccc(Cl)cc2)CC1 (configuration not stated) [Hydroxyzine 2HCl] | 0.0609 °C
OCCOCCN1CCN(C(c2ccccc2)c2ccc(Cl)cc2)CC1 (configuration not stated) [Hydroxyzine Pamoate] | 0.263 °C
Cc1cc(CCCOc2c(C)cc(-c3noc(C(F)(F)F)n3)cc2C)on1 [Pleconaril] | 0.0715 °C
Cn1c2ccccc2c2c3c(c4c5ccccc5n(CCC#N)c4c21)CNC3=O | -0.0614 °C
CN(C)[C@@H]1C(=O)C(C(N)=O)=C(O)[C@@]2(O)C(=O)C3=C(O)c4c(O)cccc4[C@@](C)(O)[C@H]3[C@H](O)[C@@H]12 [Oxytetracycline Dihydrate] | -0.0606 °C
CN(C)[C@@H]1C(=O)C(C(N)=O)=C(O)[C@@]2(O)C(=O)C3=C(O)c4c(O)cccc4[C@@](C)(O)[C@H]3[C@H](O)[C@@H]12 [Oxytetracycline (Terramycin)] | 0.0893 °C
